Reference: patent publication US8623909B2, “Prophylactic/therapeutic agents for lifestyle-related diseases” (priority 2008, dated 2014)

Tested on: B6 mice on high-fat diet
Assay: High-fat diet B6 mice, 16 weeks (body weight, serum glucose, serum insulin, food intake, visceral fat)
Format: in vivo, mouse
Conditions: 10 mg/kg s.c. every other day
Method: 9-week-old B6 mice were divided into a control group, high-fat diet group and high-fat diet+compound of formula (Ia) group of 10 animals each, and housed and observed for 16 weeks. During this period, the compound of formula (Ia) was subcutaneously injected at 10 mg/kg every other day, body weights were measured once a week, and food intake was measured once every 4 weeks.
After 16 weeks, the body weights, bone mineral densities, fat distributions and exercise levels of the mice were measured, followed by collecting blood samples and finally sacrificing the animals and collecting their organs. The average value of body weight, serum glucose concentration and serum insulin concentration of each group after 16 weeks are shown in the following Table 17.

SMILES: CC(=O)[C@H]1CCC2C3CCc4c(C)cccc4C3CC[C@@]21C (stereo partly shown) [Compound of formula (Ia)]
- Food intake (Week 4): 2.11 g/day
- Food intake (Week 8): 2.01 g/day
- Food intake (Week 12): 2.22 g/day
- Food intake (Week 16): 2.34 g/day
